# Screening data

From PubChem BioAssay record AID1053133 (Broad Institute, 2014).

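Plate-reader measure of the Venus reporter marking one vaccinia stage in infected cells (the cell line is not named here); read time unknown. The test concentration is not given here. Percent change in Venus reporter signal; lower (more negative) values mean stronger inhibition of that viral stage.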

Values are in %. How 0% and 100% were set is not given here. Common to all entries: measured here: Venus reporter, other viral stage. Part of the compounds only, not a random draw; the main read-out is not listed here.

* C=CCN1C(=O)[C@]2(O[C@H](CCn3cc(CCO)nn3)[C@@H]([Si](C)(C)c3ccc(OC)cc3)[C@@H]2C)c2cc(N3CCOC3=O)ccc21 | activity change (Venus) -52.11%
* C[C@H]1CN([C@@H](C)CO)C(=O)c2c(c3ccccc3n2C)-c2ccccc2CO[C@@H]1CN(C)C(=O)CCC(F)(F)F | activity change (Venus) -28.59%
* Cc1ccc(S(=O)(=O)N(C)C[C@H]2Oc3c(NC(=O)Nc4ccc(C(F)(F)F)cc4)cccc3C(=O)N([C@H](C)CO)C[C@H]2C)cc1 | activity change (Venus) -40.29%
* C[C@H]1CN([C@@H](C)CO)C(=O)c2cccc(NS(=O)(=O)c3ccc(Cl)cc3)c2O[C@H]1CN(C)Cc1ccc(Oc2ccccc2)cc1 | activity change (Venus) -43.13%
* C[C@@H]1CN([C@@H](C)CO)C(=O)c2cc(C#Cc3ccccc3F)cnc2O[C@H]1CN(C)C(=O)c1ccc2c(c1)OCO2 | activity change (Venus) -50.5%
* CC(C)NC(=O)N1Cc2cc(C(=O)NC3Cc4ccccc4C3)nc(-c3cccc(-c4cccnc4)c3)c2[C@@H]1CCO | activity change (Venus) -33.77%
* CO[C@H]1CN(C)C(=O)c2cc(NC(=O)NC3CCCCC3)ccc2OC[C@H](C)N(CCc2ccccc2)C[C@H]1C | activity change (Venus) -36.86%
* O=C(c1ccccc1F)N1CC(=O)N2[C@@H](CO)[C@@H](c3ccc(C#Cc4ccccc4)cc3)[C@@H]2C1 | activity change (Venus) -90.34%
* Cc1ccc(-c2ccc([C@H]3[C@H](CO)N4CCCCN(S(=O)(=O)c5cccc(C)c5)C[C@@H]34)cc2)cc1 | activity change (Venus) -28.61%
* CC(C)NC[C@H]1[C@@H](c2ccc(C3=CCCCC3)cc2)[C@@H](CO)N1C(=O)NC(C)C | activity change (Venus) -45.23%
* CN1CCN(C(=O)C[C@H]2CC[C@H]3[C@@H](COC[C@@H](O)CN3Cc3ccc(Oc4ccccc4)cc3)O2)CC1 | activity change (Venus) -38.3%
* CN1CCN(C(=O)C[C@@H]2CC[C@@H]3[C@H](COC[C@@H](O)CN3Cc3cccc(-c4ccncc4)c3)O2)CC1 | activity change (Venus) -32.89%
* O=C(C[C@H]1C=C[C@@H](NC(=O)c2ccccc2)[C@H](CO)O1)Nc1ccc(-c2ccccc2)cc1 | activity change (Venus) -24.33%
* CO[C@@H]1CN(C)C(=O)c2cc(NC(=O)c3ccc(Oc4ccccc4)cc3)ccc2OC[C@H](C)NC[C@@H]1C | activity change (Venus) -40%
* O=C(C[C@@H]1CC[C@H]2[C@@H](COC[C@@H](O)CN2Cc2cccc(C(F)(F)F)c2)O1)NCc1ccc(F)cc1 | activity change (Venus) -55.91%
* C=CCN1C(=O)[C@@]2(O[C@@H](CCn3cc(CCO)nn3)[C@H]([Si](C)(C)c3ccc(OC)cc3)[C@H]2C)c2cc(NC(=O)c3ccc(OC)cc3)ccc21 | activity change (Venus) -30.69%
* O=C(C1CC1)N1CC[C@@H]2[C@H](CO)Nc3ccc(C4=CCCCC4)cc3[C@@H]21 | activity change (Venus) -48.41%
* Cc1noc(C)c1S(=O)(=O)Nc1ccc2c(c1)CC(=O)N([C@@H](C)CO)C[C@@H](C)[C@@H](CN(C)Cc1ccc(Cl)c(Cl)c1)O2 | activity change (Venus) -39.84%
* COc1ccc(S(=O)(=O)Nc2ccc3c(c2)C(=O)N([C@H](C)CO)C[C@@H](C)[C@@H](CN(C)Cc2ccc(C(F)(F)F)cc2)OCCCC[C@@H](C)O3)cc1 | activity change (Venus) -65.47%
* CCCc1cn(CC[C@H]2CC[C@H](NS(=O)(=O)c3ccc(-c4ccccc4)cc3)[C@@H](CO)O2)nn1 | activity change (Venus) -29.65%

Repeated from the top, 2 entries:

Compound	activity change (Venus) (%)
C=CCN1C(=O)[C@]2(O[C@H](CCn3cc(CCO)nn3)[C@@H]([Si](C)(C)c3ccc(OC)cc3)[C@@H]2C)c2cc(N3CCOC3=O)ccc21	-52.11
C[C@H]1CN([C@@H](C)CO)C(=O)c2c(c3ccccc3n2C)-c2ccccc2CO[C@@H]1CN(C)C(=O)CCC(F)(F)F	-28.59